# Some of the results follow. The data scatter; read single values as rough.
# Chains of the proteins cited; added tags and fusions are not shown. Lines headed by an entry give the natural chain unless they say otherwise; changes in a name come on top. Residues count along the entry.
# UniProt Q8IYB7, 201-222: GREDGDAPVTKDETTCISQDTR
# UniProt O75165, whole entry, looked up: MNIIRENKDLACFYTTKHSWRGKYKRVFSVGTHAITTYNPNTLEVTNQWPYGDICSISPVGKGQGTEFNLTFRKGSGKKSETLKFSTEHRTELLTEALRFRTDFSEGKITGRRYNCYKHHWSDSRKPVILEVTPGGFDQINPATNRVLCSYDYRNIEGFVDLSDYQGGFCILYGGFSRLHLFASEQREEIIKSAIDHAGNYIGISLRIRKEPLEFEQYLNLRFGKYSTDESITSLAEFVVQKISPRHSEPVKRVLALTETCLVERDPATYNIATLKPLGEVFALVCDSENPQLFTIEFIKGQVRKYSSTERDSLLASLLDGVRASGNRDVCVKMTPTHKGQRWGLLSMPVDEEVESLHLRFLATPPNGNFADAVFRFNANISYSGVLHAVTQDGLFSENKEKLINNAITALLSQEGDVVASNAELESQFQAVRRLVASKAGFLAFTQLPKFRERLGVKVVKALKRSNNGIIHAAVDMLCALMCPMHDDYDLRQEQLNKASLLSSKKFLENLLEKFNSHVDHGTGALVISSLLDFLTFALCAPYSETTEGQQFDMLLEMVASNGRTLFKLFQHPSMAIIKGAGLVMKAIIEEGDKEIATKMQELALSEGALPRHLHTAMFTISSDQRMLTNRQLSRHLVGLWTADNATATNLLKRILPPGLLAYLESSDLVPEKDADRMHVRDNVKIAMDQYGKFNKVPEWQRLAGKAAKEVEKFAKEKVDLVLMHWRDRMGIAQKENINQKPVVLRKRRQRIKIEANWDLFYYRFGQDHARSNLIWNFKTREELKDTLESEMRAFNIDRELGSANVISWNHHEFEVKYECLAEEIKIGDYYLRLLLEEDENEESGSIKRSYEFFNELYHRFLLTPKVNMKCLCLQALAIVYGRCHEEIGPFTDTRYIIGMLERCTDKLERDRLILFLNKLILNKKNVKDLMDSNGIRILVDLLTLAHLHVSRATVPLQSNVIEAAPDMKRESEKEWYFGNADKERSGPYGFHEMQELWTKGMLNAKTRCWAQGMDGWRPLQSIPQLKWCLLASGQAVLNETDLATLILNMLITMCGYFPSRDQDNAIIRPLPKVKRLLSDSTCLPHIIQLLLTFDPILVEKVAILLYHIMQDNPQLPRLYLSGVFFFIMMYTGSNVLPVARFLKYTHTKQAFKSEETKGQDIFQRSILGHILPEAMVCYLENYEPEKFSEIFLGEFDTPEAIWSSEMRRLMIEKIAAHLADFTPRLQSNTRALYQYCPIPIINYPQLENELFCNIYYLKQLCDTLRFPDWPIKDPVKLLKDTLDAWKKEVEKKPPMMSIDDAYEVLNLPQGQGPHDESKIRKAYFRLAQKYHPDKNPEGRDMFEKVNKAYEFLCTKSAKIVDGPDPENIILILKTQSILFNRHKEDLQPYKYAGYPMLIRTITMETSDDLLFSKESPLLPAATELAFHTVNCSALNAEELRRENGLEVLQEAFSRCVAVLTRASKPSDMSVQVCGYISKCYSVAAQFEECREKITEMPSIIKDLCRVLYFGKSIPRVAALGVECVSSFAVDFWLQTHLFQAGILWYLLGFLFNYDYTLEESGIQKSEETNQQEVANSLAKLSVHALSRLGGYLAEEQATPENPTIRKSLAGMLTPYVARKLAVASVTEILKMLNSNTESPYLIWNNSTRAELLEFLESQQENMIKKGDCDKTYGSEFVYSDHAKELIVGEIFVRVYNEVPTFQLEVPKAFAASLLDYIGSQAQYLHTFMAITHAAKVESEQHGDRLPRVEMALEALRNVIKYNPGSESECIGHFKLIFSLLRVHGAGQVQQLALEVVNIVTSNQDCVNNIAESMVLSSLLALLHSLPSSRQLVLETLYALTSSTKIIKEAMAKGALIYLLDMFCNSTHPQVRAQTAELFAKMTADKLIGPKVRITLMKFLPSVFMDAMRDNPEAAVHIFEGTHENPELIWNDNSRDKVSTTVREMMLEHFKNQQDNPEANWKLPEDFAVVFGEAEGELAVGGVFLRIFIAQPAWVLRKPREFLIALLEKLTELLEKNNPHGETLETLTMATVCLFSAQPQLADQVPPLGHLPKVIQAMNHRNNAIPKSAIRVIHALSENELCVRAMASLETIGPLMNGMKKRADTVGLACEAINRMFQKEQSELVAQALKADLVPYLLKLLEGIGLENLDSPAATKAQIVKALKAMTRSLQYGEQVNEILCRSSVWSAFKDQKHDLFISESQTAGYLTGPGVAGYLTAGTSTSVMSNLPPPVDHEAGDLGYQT
# UniProt Q7Z401: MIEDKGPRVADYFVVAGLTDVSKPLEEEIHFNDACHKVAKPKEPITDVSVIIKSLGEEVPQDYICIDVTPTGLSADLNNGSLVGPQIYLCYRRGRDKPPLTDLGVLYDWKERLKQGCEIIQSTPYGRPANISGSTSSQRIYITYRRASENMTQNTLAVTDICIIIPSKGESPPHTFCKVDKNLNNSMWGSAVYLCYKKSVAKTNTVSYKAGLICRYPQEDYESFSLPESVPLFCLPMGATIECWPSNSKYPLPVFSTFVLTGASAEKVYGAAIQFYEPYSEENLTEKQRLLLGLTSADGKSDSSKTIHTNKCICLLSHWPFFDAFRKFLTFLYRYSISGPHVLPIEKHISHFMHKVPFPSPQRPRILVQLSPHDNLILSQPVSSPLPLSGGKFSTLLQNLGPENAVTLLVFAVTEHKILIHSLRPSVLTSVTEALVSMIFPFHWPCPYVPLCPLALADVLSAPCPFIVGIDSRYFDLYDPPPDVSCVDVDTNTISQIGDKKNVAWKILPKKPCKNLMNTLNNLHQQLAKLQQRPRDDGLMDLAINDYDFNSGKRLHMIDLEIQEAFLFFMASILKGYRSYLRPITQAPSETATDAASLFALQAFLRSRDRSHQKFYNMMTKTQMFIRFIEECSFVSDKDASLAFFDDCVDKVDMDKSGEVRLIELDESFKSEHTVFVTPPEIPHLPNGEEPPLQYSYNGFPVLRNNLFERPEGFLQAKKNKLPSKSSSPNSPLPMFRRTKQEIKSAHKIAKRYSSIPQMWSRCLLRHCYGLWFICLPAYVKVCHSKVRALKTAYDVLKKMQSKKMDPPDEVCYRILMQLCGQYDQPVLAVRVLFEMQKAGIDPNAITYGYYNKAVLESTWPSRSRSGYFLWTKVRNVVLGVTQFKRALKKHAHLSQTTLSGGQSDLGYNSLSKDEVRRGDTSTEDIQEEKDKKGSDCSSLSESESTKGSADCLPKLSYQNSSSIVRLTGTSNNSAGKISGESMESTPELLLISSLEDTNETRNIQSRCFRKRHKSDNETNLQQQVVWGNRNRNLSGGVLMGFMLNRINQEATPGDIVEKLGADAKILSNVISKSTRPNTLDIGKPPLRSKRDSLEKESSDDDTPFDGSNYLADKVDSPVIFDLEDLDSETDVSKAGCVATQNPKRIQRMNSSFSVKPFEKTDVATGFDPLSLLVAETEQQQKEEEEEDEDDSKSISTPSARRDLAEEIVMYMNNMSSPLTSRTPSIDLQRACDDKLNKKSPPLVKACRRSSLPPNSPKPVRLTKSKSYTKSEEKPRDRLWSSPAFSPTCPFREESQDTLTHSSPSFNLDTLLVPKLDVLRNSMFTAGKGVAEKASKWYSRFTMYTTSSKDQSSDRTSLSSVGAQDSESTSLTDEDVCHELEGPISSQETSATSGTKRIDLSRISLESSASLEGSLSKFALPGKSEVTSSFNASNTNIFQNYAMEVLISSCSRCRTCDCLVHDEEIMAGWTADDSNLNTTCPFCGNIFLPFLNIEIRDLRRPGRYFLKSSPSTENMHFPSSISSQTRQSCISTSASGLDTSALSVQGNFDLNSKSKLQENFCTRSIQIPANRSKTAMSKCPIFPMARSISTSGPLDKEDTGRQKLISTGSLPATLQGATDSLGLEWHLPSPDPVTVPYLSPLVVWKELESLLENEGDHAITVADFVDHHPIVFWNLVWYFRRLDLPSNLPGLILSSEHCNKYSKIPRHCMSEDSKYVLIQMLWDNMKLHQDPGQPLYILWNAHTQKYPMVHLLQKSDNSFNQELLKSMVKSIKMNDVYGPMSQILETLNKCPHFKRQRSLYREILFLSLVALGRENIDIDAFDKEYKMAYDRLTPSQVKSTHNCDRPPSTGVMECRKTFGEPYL
# UniProt Q5QJE6, 473-501: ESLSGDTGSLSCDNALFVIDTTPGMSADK
# UniProt Q9UKB3: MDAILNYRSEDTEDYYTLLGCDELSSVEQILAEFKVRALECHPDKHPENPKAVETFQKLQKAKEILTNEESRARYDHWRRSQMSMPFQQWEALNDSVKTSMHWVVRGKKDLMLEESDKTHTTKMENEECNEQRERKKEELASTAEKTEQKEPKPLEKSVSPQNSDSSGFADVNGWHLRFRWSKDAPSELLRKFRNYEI
# UniProt Q08211: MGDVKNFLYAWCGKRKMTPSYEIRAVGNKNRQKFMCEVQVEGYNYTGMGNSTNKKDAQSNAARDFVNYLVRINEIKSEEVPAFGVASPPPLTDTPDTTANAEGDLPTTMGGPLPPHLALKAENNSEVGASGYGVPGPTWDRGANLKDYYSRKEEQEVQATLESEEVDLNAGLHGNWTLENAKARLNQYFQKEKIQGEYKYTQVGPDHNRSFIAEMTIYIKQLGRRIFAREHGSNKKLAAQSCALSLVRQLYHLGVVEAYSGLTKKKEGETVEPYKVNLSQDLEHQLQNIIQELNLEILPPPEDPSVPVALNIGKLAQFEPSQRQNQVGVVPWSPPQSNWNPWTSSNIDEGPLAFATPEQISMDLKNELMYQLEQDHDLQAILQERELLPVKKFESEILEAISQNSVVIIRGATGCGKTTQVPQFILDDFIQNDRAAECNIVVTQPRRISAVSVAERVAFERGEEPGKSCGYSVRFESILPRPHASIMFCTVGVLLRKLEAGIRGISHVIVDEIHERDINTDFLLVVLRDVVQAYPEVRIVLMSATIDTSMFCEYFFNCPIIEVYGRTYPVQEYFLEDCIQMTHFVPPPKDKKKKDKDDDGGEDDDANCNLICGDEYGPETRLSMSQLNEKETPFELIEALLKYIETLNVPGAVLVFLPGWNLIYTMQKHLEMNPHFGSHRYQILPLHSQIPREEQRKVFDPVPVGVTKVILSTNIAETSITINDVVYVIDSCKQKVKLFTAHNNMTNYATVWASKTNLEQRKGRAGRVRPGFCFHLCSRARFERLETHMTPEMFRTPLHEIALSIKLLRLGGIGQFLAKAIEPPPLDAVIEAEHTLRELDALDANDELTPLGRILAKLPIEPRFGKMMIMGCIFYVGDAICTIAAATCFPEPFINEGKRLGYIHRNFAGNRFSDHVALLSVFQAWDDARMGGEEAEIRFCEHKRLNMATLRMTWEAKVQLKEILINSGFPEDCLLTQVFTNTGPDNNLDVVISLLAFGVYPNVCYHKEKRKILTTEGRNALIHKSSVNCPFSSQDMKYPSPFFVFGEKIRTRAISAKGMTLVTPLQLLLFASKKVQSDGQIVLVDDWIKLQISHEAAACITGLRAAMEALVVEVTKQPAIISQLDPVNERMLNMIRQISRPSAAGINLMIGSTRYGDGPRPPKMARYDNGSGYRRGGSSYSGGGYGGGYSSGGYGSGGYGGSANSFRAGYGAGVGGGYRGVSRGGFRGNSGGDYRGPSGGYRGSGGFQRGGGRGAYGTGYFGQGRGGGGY
# UniProt Q9Y2L1: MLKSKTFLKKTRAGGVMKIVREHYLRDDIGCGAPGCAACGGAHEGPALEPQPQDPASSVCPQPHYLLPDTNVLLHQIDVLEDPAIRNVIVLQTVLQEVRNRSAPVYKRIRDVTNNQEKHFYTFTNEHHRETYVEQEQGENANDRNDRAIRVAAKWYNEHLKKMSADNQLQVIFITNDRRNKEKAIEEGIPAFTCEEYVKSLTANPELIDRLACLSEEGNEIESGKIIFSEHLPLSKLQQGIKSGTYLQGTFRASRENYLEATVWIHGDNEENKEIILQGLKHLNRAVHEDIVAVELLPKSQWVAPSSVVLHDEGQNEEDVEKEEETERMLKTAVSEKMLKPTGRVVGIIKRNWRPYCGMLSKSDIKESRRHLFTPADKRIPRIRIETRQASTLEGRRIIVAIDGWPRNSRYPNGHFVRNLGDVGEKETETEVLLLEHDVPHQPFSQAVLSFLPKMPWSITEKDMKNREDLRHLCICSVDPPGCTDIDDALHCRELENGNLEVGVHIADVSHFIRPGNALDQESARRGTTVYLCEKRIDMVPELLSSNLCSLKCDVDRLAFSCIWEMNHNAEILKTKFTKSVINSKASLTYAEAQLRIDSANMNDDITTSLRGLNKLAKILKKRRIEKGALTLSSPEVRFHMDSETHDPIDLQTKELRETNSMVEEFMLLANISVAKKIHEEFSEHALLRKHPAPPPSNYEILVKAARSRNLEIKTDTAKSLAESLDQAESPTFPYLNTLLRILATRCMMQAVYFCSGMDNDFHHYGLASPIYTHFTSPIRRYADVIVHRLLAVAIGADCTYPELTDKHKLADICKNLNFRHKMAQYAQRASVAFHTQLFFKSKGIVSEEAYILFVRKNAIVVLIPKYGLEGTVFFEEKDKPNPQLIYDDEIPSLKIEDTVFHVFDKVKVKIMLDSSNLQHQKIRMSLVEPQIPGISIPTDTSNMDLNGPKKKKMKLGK
# Assays:
# [1] = compound: ClCC(=O)N[C@@H]1CCCc2ccccc12; assay: log2 mean competition ratio of IA-DTB cysteine labelling (DMSO/compound) (log2 ratio); higher = stronger cysteine engagement by compound; conditions: treatment time: 4 h, cell line lysate: HEK293T
# Experimental: (§1)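 IA-DTB competitive cysteine chemoproteomics in HEK293T RIPA lysate. Lysates were treated with compound 29 or 30 at 50 or 200 µM for 4 h, then IA-DTB (500 µM, 1 h), trypsin-digested, NeutrAvidin-enriched and analysed by diaPASEF. Competition ratio = intensity DMSO / intensity compound (n=4 treated, n=64 DMSO); binding: mean log2 CR ≥ 1 and p ≤ 0.05 plus QC filters. Target is the cysteine site.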
# [2] = compound: ClCC(=O)N[C@H]1CCCc2ccccc12; assay: as above; conditions: treatment time: 4 h, cell line lysate: HEK293T
# Experimental: as §1
Target,log2 mean competition ratio ([1]; 50 µM),log2 mean competition ratio ([1]; 200 µM),log2 mean competition ratio ([2]; 50 µM),log2 mean competition ratio ([2]; 200 µM)
DIS3L2 C216 (UniProt Q8IYB7),-0.227,-0.105,-0.241,-0.0485
DNAJC7 C7 (UniProt Q99615),-0.406,-0.125,-0.313,-0.00358
DHX57 C571 (UniProt Q6P158),0.342,-0.184,0.417,-0.218
DOCK11 C1204,0.026,-0.0201,0.065,-0.153
DHX30 C765 (UniProt Q7L2E3),0.4,0.0379,0.253,0.09
DOHH C232 (UniProt Q9BU89),-0.0877,0.237,-0.000583,0.258
DIAPH3 C558 (UniProt Q9NSV4),-0.0828,-0.0953,0.18,0.15
DNAJC13 C1354 (UniProt O75165),0.0832,-0.166,0.194,-0.0982
DIP2B C592 (UniProt Q9P265),0.212,-0.138,-0.0297,-0.0649
DENND4A C937 (UniProt Q7Z401),0.0121,0.316,-0.0166,0.151
DMD C3229 (UniProt P11532),-0.00237,0.282,0.14,0.297
DHX8 C123 (UniProt Q14562),-0.0733,0.179,-0.486,0.0486
DHX38 C865 (UniProt Q92620),-0.111,0.138,-0.122,-0.0306
DNAJA1 C302 (UniProt P31689),-0.204,-0.231,-0.195,-0.0279
DNAJC13 C2082 (UniProt O75165),0.178,0.202,0.147,0.231
DNAAF5 C173 (UniProt Q86Y56),-0.0825,-0.346,-0.118,-0.0159
DENR C132 (UniProt O43583),0.44,0.213,-0.139,-0.0719
DHX15 C750 (UniProt O43143),-0.408,0.117,-0.888,0.035
"DOCK11_(C150,C150,C160,C160)",-0.183,-0.00205,0.0843,-0.0618
DHX36 C640 (UniProt Q9H2U1),-0.0597,-0.277,-0.311,-0.196
DIDO1 C498 (UniProt Q9BTC0),-0.0718,-0.209,-0.148,-0.183
DNTTIP2 C484 (UniProt Q5QJE6),-0.07,0.227,0.264,0.0614
DFFB C316 (UniProt O76075),-0.105,-0.0671,-0.38,-0.306
DNAJC12 C41 (UniProt Q9UKB3),0.0331,-0.327,-0.0589,-0.256

# Shown bar-delimited: part of the list above.
Target | log2 mean competition ratio ([1]; 50 µM) | log2 mean competition ratio ([1]; 200 µM) | log2 mean competition ratio ([2]; 50 µM) | log2 mean competition ratio ([2]; 200 µM)
DOCK11 C1204 | 0.026 | -0.0201 | 0.065 | -0.153
DOHH C232 (UniProt Q9BU89) | -0.0877 | 0.237 | -0.000583 | 0.258
DIP2B C592 (UniProt Q9P265) | 0.212 | -0.138 | -0.0297 | -0.0649
DENND4A C937 (UniProt Q7Z401) | 0.0121 | 0.316 | -0.0166 | 0.151
DMD C3229 (UniProt P11532) | -0.00237 | 0.282 | 0.14 | 0.297
DHX38 C865 (UniProt Q92620) | -0.111 | 0.138 | -0.122 | -0.0306
DNAAF5 C173 (UniProt Q86Y56) | -0.0825 | -0.346 | -0.118 | -0.0159
DHX36 C640 (UniProt Q9H2U1) | -0.0597 | -0.277 | -0.311 | -0.196
DIDO1 C498 (UniProt Q9BTC0) | -0.0718 | -0.209 | -0.148 | -0.183
DNTTIP2 C484 (UniProt Q5QJE6) | -0.07 | 0.227 | 0.264 | 0.0614
DFFB C316 (UniProt O76075) | -0.105 | -0.0671 | -0.38 | -0.306
DNAJC12 C41 (UniProt Q9UKB3) | 0.0331 | -0.327 | -0.0589 | -0.256

# More records:

Target,log2 mean competition ratio ([1]; 50 µM),log2 mean competition ratio ([1]; 200 µM),log2 mean competition ratio ([2]; 50 µM),log2 mean competition ratio ([2]; 200 µM)
DOCK6 C595 (UniProt Q96HP0),-0.143,-0.081,0.225,0.149
DHX16 C450 (UniProt O60231),-0.121,-0.181,-0.0999,-0.0865
DHX33 C414 (UniProt Q9H6R0),-0.173,-0.147,-0.079,-0.047
DENND4B C652 (UniProt O75064),-0.211,0.27,-0.111,0.132
DENND5B C733 (UniProt Q6ZUT9),0.0954,1.39,0.107,0.932
DNAJC7 C317 (UniProt Q99615),-0.115,-0.0235,-0.179,-0.0455
DHX9 C438 (UniProt Q08211),-0.216,-0.228,-0.263,-0.0914
DNAJC6 C382 (UniProt O75061),-0.0873,0.266,-0.233,0.207
DENND4A C1579 (UniProt Q7Z401),0.114,0.236,-0.322,0.267
DNAAF2 C508 (UniProt Q9NVR5),-0.185,0.0313,-0.132,-0.0311
DIAPH2 C484 (UniProt O60879),-0.156,0.305,-0.409,0.208
DPYSL4 C248,-0.371,-0.00929,-0.419,0.156
DHX40 C42 (UniProt Q8IX18),0.0814,-0.184,0.788,-0.179
DMXL1 C2618 (UniProt Q9Y485),0.0144,0.114,-0.0857,0.24
DEPDC5 C966 (UniProt O75140),0.401,0.0688,-0.222,0.069
DRG1 C195 (UniProt Q9Y295),-0.324,-0.0281,-0.401,-0.205
DIS3 C213 (UniProt Q9Y2L1),-0.143,-0.293,0.171,-0.233
DPH6 C130 (UniProt Q7L8W6),0.202,-0.0305,0.488,-0.164
DOCK7 C2125 (UniProt Q96N67),0.247,-0.487,0.39,-0.429
DPYSL2 C504 (UniProt Q16555),-0.12,-0.136,-0.0234,-0.102
DMXL1 C1352 (UniProt Q9Y485),-0.0901,-0.262,-0.303,-0.248
DHX15 C190 (UniProt O43143),-0.018,-0.192,-0.193,0.137
DOLPP1 C86 (UniProt Q86YN1),0.476,-0.283,0.306,-0.38
DNAJC13 C1770 (UniProt O75165),0.103,-0.0328,0.0354,-0.152
